# In the supplement of paper PMC10849652:
# Amino acid sequences for entries named in this document (tags omitted). A change or cut given only in a name is not applied to a line headed by its entry.
# UniProt Q8NBM8: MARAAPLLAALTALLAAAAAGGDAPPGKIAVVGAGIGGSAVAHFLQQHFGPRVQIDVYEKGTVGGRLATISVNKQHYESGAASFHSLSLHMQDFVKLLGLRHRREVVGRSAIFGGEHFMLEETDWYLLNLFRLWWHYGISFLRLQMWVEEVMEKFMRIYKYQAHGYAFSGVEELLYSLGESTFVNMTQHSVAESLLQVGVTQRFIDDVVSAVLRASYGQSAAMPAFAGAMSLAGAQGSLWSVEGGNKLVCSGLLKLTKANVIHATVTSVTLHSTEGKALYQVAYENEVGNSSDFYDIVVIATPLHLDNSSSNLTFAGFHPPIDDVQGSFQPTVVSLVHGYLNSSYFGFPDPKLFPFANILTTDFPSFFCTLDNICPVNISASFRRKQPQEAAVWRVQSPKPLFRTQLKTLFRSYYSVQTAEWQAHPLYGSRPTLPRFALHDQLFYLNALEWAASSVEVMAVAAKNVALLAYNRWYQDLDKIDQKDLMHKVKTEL
# UniProt P13667: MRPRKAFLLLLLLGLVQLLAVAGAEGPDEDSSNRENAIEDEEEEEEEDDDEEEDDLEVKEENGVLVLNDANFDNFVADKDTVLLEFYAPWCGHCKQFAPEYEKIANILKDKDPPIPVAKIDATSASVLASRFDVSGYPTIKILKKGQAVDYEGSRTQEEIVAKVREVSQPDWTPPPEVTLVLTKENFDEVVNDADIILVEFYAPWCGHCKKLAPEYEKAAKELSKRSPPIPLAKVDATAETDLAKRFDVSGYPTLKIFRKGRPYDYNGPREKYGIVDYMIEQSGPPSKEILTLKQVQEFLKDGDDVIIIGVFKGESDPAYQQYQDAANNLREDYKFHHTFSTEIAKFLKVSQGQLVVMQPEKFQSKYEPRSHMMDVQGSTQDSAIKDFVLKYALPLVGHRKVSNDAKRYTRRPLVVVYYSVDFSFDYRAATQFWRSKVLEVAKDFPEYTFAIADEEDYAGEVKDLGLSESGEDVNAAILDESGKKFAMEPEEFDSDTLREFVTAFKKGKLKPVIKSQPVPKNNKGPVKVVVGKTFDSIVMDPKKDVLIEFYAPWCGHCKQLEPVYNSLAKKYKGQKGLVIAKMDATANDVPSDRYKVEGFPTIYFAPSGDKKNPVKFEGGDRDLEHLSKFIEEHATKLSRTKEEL
# UniProt Q29RF7: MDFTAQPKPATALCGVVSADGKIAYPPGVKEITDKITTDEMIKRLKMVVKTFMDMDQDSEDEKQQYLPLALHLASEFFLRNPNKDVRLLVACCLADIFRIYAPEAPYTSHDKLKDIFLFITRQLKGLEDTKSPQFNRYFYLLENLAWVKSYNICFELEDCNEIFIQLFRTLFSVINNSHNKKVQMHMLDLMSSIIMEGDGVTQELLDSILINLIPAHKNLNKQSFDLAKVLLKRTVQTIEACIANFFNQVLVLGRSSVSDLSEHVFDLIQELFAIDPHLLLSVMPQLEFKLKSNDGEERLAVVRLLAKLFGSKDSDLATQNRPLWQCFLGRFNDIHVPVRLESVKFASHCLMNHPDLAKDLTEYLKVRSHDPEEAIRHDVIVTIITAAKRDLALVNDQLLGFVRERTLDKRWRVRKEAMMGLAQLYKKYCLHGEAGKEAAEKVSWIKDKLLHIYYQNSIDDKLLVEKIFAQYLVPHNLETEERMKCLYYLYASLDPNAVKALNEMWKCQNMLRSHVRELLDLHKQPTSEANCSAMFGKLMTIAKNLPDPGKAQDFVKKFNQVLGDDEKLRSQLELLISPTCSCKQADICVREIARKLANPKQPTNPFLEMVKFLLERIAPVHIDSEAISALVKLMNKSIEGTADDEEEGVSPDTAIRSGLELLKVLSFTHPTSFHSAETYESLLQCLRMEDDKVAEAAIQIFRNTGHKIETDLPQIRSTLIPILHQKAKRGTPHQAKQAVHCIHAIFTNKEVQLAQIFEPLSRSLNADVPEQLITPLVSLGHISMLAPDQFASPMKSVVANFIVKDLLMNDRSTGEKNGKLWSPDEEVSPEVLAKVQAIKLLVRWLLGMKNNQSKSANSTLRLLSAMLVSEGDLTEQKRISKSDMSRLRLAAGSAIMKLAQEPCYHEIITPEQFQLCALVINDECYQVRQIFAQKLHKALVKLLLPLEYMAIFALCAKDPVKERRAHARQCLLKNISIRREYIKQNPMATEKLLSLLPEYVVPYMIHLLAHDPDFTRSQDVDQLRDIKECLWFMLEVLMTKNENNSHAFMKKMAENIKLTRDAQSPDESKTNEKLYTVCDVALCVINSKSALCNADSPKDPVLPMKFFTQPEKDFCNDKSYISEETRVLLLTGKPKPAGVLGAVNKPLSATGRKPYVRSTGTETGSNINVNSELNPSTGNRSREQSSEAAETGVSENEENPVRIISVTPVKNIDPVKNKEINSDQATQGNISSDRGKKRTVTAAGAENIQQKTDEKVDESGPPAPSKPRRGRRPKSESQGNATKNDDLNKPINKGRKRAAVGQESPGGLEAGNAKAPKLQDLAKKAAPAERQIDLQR
# UniProt Q15366, whole entry, looked up: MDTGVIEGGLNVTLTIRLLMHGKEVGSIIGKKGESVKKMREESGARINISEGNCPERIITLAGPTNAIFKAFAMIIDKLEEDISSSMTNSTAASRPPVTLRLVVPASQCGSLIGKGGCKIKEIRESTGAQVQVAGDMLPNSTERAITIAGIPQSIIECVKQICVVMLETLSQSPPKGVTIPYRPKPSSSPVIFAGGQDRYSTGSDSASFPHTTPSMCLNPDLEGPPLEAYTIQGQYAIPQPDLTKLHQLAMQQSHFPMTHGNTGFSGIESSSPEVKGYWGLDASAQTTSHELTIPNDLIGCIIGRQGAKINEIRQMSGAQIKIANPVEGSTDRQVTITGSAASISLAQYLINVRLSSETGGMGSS
# UniProt Q86TB9: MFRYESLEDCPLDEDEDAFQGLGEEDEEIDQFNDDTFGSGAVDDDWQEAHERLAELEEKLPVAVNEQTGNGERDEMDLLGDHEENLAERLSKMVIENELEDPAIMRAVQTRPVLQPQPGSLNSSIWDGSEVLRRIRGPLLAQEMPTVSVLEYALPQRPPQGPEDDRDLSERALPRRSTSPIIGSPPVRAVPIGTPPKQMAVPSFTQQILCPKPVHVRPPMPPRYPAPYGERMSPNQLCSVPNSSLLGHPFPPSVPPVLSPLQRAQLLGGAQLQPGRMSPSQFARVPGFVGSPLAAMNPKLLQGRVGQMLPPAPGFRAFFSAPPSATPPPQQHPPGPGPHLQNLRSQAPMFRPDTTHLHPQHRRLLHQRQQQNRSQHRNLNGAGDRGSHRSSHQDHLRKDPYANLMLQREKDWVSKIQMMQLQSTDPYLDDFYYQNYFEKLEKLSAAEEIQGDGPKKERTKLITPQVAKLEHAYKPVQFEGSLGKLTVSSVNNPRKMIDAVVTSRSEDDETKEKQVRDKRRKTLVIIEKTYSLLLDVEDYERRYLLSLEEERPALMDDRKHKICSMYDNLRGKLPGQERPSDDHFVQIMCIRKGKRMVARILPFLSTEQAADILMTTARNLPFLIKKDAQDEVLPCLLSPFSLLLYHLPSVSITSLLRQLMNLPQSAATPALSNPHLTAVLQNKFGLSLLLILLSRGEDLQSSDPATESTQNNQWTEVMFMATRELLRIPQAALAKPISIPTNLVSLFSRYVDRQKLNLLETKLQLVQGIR
# UniProt O60825: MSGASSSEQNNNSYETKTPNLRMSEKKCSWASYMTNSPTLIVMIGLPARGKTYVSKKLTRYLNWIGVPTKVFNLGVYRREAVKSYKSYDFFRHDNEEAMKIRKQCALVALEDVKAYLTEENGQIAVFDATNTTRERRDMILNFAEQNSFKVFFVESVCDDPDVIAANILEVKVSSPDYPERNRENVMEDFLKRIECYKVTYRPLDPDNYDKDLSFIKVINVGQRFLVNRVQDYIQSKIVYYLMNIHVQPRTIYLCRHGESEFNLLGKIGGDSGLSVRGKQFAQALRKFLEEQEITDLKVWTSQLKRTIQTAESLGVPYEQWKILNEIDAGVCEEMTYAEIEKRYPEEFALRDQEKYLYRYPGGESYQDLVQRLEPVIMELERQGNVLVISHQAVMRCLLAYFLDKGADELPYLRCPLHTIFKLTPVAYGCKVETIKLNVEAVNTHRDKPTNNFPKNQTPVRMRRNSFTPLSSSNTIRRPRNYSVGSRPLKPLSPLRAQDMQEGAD
# UniProt Q53EL6: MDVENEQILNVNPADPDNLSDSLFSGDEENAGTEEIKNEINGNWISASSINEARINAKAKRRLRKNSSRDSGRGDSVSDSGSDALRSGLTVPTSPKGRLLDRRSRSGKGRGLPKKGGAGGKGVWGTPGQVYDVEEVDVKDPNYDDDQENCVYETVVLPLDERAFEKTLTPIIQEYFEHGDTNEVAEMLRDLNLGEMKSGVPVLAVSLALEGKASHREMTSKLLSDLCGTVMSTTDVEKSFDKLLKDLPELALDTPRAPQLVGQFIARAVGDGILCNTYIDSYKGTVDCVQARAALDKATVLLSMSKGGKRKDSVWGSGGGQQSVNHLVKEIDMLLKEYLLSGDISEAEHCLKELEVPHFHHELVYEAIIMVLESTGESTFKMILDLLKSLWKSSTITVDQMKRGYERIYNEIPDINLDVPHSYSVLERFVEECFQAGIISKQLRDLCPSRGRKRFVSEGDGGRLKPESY
# UniProt O00408, whole entry, looked up: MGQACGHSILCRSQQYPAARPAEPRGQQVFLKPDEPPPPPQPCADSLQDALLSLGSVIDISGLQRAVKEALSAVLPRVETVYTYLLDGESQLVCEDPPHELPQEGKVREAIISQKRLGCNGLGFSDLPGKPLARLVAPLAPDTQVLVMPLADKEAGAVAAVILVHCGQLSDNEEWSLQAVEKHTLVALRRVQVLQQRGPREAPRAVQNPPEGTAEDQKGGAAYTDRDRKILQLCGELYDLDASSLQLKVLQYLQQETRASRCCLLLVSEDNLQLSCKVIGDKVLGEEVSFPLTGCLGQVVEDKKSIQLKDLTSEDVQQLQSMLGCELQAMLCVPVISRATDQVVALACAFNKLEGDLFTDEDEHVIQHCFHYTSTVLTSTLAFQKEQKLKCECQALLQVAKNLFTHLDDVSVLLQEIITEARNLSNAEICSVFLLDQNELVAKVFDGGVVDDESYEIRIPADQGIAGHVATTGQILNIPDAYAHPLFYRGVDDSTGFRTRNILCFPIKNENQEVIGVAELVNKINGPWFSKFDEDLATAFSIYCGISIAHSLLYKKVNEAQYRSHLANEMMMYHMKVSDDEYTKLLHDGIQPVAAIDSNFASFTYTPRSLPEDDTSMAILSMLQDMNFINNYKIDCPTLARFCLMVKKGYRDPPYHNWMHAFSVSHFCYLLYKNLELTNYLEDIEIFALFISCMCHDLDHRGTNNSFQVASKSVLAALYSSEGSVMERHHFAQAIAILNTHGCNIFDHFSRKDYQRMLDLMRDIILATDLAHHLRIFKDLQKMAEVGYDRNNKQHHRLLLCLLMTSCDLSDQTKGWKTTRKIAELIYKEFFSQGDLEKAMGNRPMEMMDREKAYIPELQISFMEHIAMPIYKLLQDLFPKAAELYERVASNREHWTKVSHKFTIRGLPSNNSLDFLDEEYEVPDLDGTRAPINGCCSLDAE
# UniProt Q9NR12, whole entry, looked up: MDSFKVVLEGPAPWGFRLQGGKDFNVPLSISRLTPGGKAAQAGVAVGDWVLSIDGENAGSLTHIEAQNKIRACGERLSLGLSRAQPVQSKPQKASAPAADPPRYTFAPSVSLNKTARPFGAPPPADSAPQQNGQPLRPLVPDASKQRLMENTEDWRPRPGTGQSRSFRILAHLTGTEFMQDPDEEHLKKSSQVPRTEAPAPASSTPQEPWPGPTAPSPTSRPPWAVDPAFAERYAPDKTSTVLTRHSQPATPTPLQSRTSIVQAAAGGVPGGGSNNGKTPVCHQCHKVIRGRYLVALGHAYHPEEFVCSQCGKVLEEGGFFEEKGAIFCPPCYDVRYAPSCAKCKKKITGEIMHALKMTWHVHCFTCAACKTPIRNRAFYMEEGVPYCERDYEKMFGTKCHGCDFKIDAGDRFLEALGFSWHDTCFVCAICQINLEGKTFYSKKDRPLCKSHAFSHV
# UniProt O00541, whole entry, looked up: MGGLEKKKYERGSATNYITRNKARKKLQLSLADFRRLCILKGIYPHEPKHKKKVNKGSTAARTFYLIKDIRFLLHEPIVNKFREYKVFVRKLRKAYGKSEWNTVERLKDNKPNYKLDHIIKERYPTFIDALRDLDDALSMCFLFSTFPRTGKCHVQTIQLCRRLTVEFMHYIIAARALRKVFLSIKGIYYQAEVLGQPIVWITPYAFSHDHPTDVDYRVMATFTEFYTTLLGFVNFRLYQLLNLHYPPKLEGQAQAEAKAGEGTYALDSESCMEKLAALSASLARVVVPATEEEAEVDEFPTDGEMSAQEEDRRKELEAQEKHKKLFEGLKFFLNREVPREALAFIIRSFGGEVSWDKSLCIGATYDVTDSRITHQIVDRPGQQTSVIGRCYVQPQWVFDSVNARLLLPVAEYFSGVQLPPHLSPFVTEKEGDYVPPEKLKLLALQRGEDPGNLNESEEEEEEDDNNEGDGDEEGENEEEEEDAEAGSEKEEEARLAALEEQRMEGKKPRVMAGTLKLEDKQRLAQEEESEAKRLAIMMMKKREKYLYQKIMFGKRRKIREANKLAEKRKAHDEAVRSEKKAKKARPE
# The other results are listed elsewhere or left out.
# Legend:
# Assay in all cases: log2 fold change, soluble protein after heating vs DMSO (PISA); higher = thermal stabilisation; K562 lysate, 10 uM; active = over 0.2 and 3.5 SD of the protein, either way, in both replicates (recomputed)
# [1] = compound: CN1CC[C@H](c2c(O)cc(O)c3c(=O)cc(-c4ccccc4Cl)oc23)[C@H](O)C1 [alvocidib]
# Method in brief: (§1)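 Dounce homogenisation of K562 pellets in PBS pH 7.4 with 1 mM MgCl2 produced a crude extract, used at 1 mg/mL protein. Exposure to 10 μM compound lasted 30 min, and aliquots were then heated for 3 min across 48°C-58°C, pooled and brought to 0.5% NP-40 at 4°C. The supernatant after 21,000xg for 90 min was quantified by TMTpro 16plex LC-MS/MS with channel sums equalised. Duplicate values are given as log-two fold change in thermal stability relative to solvent controls.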
# [2] = compound: CN1CCc2c(c3ccccc3n2Cc2ccc(C(=O)NO)cc2)C1 [Tubastatin A]
# Method in brief: as §1
# [3] = compound: CNC(=O)C1=CC=CC=C1NC2=NC(=NC=C2Cl)NC3=C(C=C(C=C3)N4CCOCC4)OC
# Method in brief: as §1
# [4] = compound: CNC(=O)c1ccc(Nc2ncc(C(F)(F)F)c(NCc3nccnc3N(C)S(C)(=O)=O)n2)cc1 [defactinib]
# Method in brief: as §1
# [5] = compound: CNc1nc(-c2ccc3c(N)n[nH]c3c2)cc(N2C[C@@H](C(=O)NC3CCCCC3)CC[C@H]2C)n1
# Method in brief: as §1
# [6] = compound: COC(=O)N[C@@H](C)CNc1nccc(-c2cn(C(C)C)nc2-c2cc(Cl)cc(NS(C)(=O)=O)c2F)n1 [encorafenib]
# Method in brief: as §1
# [7] = compound: COC(=O)[C@H](CCSC)NC(=O)C1=C(C=C(C=C1)NC[C@H](CS)N)C2=CC=CC=C2
# Method in brief: as §1
# [8] = compound: COc1cc(Nc2ncc3c(n2)-c2ccc(Cl)cc2C(c2c(F)cccc2OC)=NC3)ccc1C(=O)O [alisertib]
# Method in brief: as §1
# [9] = compound: COc1cc2nc(-c3cc(F)ccc3O)nc(N[C@@H]3CNC[C@H]3C(C)(C)O)c2cc1OC
# Method in brief: as §1
# [10] = compound: COc1cc2ncnc(Nc3ccc(F)c(Cl)c3)c2cc1OCCCN1CCOCC1 [gefitinib]
# Method in brief: as §1
Target,log2 fold change [1],log2 fold change [2],log2 fold change [3],log2 fold change [4],log2 fold change [5],log2 fold change [6],log2 fold change [7],log2 fold change [8],log2 fold change [9],log2 fold change [10]
PCYOX1L (UniProt Q8NBM8),inactive: 0.002,inactive: 0.041,inactive: 0.012,inactive: -0.009,inactive: 0.014,inactive: 0.087,inactive: -0.03,inactive: 0.004,inactive: 0.04,inactive: -0.016
PARP2 (UniProt Q9UGN5),inactive: -0.023,inactive: -0.066,inactive: -0.03,inactive: 0.08,inactive: -0.039,inactive: 0.067,inactive: 0.042,inactive: 0.008,inactive: -0.008,inactive: -0.01
PDIA4 (UniProt P13667),inactive: 0.025,inactive: 0.05,inactive: -0.008,inactive: -0.042,inactive: -0.012,inactive: -0.011,inactive: -0.027,inactive: -0.007,inactive: -0.001,inactive: -0.011
PDS5A (UniProt Q29RF7),inactive: 0.023,inactive: -0.21,inactive: 0.016,inactive: 0.016,inactive: -0.054,inactive: 0.048,inactive: -0.003,inactive: 0.014,inactive: 0,inactive: -0.005
PECAM1 (UniProt P16284),inactive: -0.05,inactive: 0.043,inactive: 0.012,inactive: 0.025,inactive: 0.054,inactive: 0.004,inactive: -0.049,inactive: -0.039,inactive: -0.007,inactive: -0.052
PBDC1 (UniProt Q9BVG4),inactive: 0.006,inactive: 0.016,inactive: -0.02,inactive: -0.031,inactive: 0.023,inactive: 0.005,inactive: -0.04,inactive: -0.032,inactive: -0.009,inactive: -0.062
PCNP (UniProt Q8WW12),inactive: -0.038,inactive: 0.042,inactive: -0.004,inactive: -0.031,inactive: 0.075,inactive: -0.017,inactive: -0.01,inactive: -0.01,inactive: 0.034,inactive: 0.018
PCBP2 isoform 8 (UniProt Q15366),inactive: -0.01,inactive: -0.133,inactive: 0.022,inactive: 0,inactive: 0.079,inactive: 0.053,inactive: 0.108,inactive: -0.013,inactive: -0.085,inactive: -0.122
PATL1 (UniProt Q86TB9),inactive: 0.002,inactive: 0.021,inactive: 0.006,inactive: -0.027,inactive: 0.024,inactive: 0.068,inactive: 0.207,inactive: 0.068,inactive: 0.054,inactive: -0.002
PCSK9 (UniProt Q8NBP7),inactive: -0.074,inactive: -0.01,inactive: 0.016,inactive: 0.049,inactive: 0.065,inactive: 0.037,inactive: 0.006,inactive: 0.008,inactive: 0.026,inactive: 0.028
PFKFB2 (UniProt O60825),inactive: 0.017,inactive: -0.045,inactive: 0.03,inactive: -0.02,inactive: -0.035,inactive: 0.015,inactive: -0.124,inactive: 0.014,inactive: 0.006,inactive: 0.014
PDCD4 (UniProt Q53EL6),inactive: 0.01,inactive: -0.033,inactive: 0.017,inactive: 0.002,inactive: 0.019,inactive: 0.019,inactive: -0.034,inactive: -0.005,inactive: 0.015,inactive: -0.003
PDE2A (UniProt O00408),inactive: 0.038,inactive: 0.275,inactive: 0.044,inactive: -0.24,inactive: 0.028,inactive: 0.11,inactive: -0.019,inactive: 0.014,inactive: 0.048,inactive: -0.01
PDLIM7 (UniProt Q9NR12),inactive: 0.011,inactive: 0.034,inactive: 0.012,inactive: 0.022,inactive: 0.018,inactive: 0.025,inactive: -0.086,inactive: 0.015,inactive: -0.002,inactive: -0.008
PES1 (UniProt O00541),inactive: -0.017,inactive: -0.044,inactive: 0.05,inactive: 0.005,inactive: 0.017,inactive: 0.006,active: 0.35,inactive: 0.028,inactive: -0.003,inactive: 0.007

# Part of the list above, set out differently.
Target	log2 fold change [1]	log2 fold change [2]	log2 fold change [3]	log2 fold change [4]	log2 fold change [5]	log2 fold change [6]	log2 fold change [7]	log2 fold change [8]	log2 fold change [9]	log2 fold change [10]
PDLIM7 (UniProt Q9NR12)	inactive: 0.011	inactive: 0.034	inactive: 0.012	inactive: 0.022	inactive: 0.018	inactive: 0.025	inactive: -0.086	inactive: 0.015	inactive: -0.002	inactive: -0.008
PES1 (UniProt O00541)	inactive: -0.017	inactive: -0.044	inactive: 0.05	inactive: 0.005	inactive: 0.017	inactive: 0.006	active: 0.35	inactive: 0.028	inactive: -0.003	inactive: 0.007
